At least one structure is not confirmed: it was looked up by name or label, or the drawing left a doubt.
Legend:
Akt/PKB = type: cell-based, rat; conditions: SB202190, PD98059 10 µM; rapamycin 20 nM; wortmannin 200 nM; stimulus 100 nM insulin
cardiac myocytes [1] = conditions: in the absence or in the presence of insulin or arsenite; SB202190 (10 µM), PD98059 (10 µM), rapamycin (100 nM)
p38 MAPK = conditions: SB202190, SB203580, PD98059 10 µM; rapamycin 20 nM; stimulus 100 µM arsenite
cardiac myocytes [2] = conditions: PD98059 (10 µM), rapamycin (100 nM), wortmannin (200 nM)
[3] = test system: heart-derived giant vesicles; assay: glucose uptake by giant vesicles (intrinsic transporter activity); type: biochemical, rat; conditions: same concentrations as in cardiac myocyte studies, added 20 min prior
ACC = conditions: SB202190, PD98059 10 µM; rapamycin 20 nM; wortmannin 200 nM; stimulus 5 µM oligomycin
p42/44 ERK = conditions: SB202190, PD98059 10 µM; rapamycin 20 nM; wortmannin 200 nM; stimulus 50 µM phenylephrine
p70 S6K = conditions: SB202190, PD98059 10 µM; rapamycin 20 nM; wortmannin 200 nM; stimulus 100 µM arsenite

CO[C@H]1C[C@@H]2CC[C@@H](C)[C@@](O)(O2)C(=O)C(=O)N2CCCC[C@H]2C(=O)O[C@H]([C@H](C)C[C@@H]2CC[C@@H](O)[C@H](OC)C2)CC(=O)[C@H](C)/C=C(\C)[C@@H](O)[C@@H](OC)C(=O)[C@H](C)C[C@H](C)/C=C/C=C/C=C/1C [rapamycin]
inhibition of insulin-induced Akt/PKB phosphorylation (Akt/PKB): without altering | effect on LCFA uptake (cardiac myocytes [1]): neither SB202190, nor PD98059 or rapamycin were able to influence | inhibition of arsenite-stimulated p38 MAPK phosphorylation (p38 MAPK): without altering | effect on arsenite-stimulated glucose uptake (cardiac myocytes [2]; 100 µM arsenite): neither PD98059 nor rapamycin affected glucose uptake | effect on insulin-stimulated glucose uptake (cardiac myocytes [2]; insulin): neither PD98059 nor rapamycin affected glucose uptake | effect on glucose uptake into giant vesicles [3]: did not alter | inhibition of oligomycin-induced ACC phosphorylation (ACC): without altering | inhibition of phenylephrine-induced p42/44 ERK phosphorylation (p42/44 ERK): without altering | inhibition of arsenite-induced p70 S6K phosphorylation (p70 S6K): solely inhibited
